Reference: publication doi:10.1101/2021.06.28.450235
No constants are given. Whether binding was seen depends on the method and setting. Some results given as binding are weak or reduced against the parent protein; the word gives no strength.

B1: Psb28 auxiliary protein (protein, UniProt Q8DLJ8 1-116)
chain: MGAMAEIQFIRGINEEVVPDVRLTRARDGSSGQAMFYFDNPKIVQEGNLEVTGMYMVDEEGEIVTRDVNAKFINGQPVAIEATYTMRSPQEWDRFIRFMDRYAASHGLGFQKSENS
B2: Psb34 auxiliary protein (protein, UniProt Q8DMP8 1-56)
chain: MRYTTDEGGRLNNFAIEPKVYQAQPWTPQQKVRAALLVGGGLLLVAGLVAIAVGVS
B3: Psb27 auxiliary protein (protein, UniProt Q8DG60 22-134)
chain: CANVPTGLTGNFREDTLALISSLREAIALPENDPNKKAAQAEARKKLNDFFALYRRDDSLRSLSSFMTMQTALNSLAGHYSSYPNRPLPEKLKARLEQEFKQVELALDREAKS

molecular target: CP43 subunit of photosystem II with a C-terminal Twin-Strep-tag (T. elongatus) (UniProt Q8DIF8); test: affinity co-purification read by SDS-PAGE

binding, binds:
B1
B2
B3
